From patent US8877819B2, “Methods for treating heat stress and related compositions” (Georgetown University, priority 2008, dated 2014) come the findings set out here.

Structures are written as SMILES.

The data set in a line: Body weight (BW). The data set is classed as in vivo, Zucker Fatty Rats. The note with it: Experiment 1; for BW vs control over the initial 33 days: differences not statistically significant; for Change in body weight after heat stress: survivors, 12 days after heat stress.
[1] abbreviates: Hi Asta, astaxanthin 25 mg/kg in feed.
Setting [2] is: Lo Asta, astaxanthin 5 mg/kg in feed.

`C[C@H](CS)C(=O)N1CCC[C@H]1C(=O)O` [Captopril, reference compound]: where the note is “captopril 30 mg/kg in feed”, the “BW vs control over the initial 33 days” value is reported as “increased slightly over control” and the “Change in body weight after heat stress” value came to 37.0 ± 18.4 g.

On to `CC1=C(/C=C/C(C)=C/C=C/C(C)=C/C=C/C=C(C)/C=C/C=C(C)/C=C/C2=C(C)C(=O)[C@@H](O)CC2(C)C)C(C)(C)C[C@H](O)C1=O` [Asta, astaxanthin], for which the “BW vs control over the initial 33 days” value is recorded as “increased slightly over control” under setting [1] and “increased slightly over control” under setting [2]. Moreover, the “Change in body weight after heat stress” value by setting is: under setting [1], 24.3 ± 6.8 g; under setting [2], 14.5 ± 13.2 g.
